PubChem BioAssay AID1487 (National Center for Advancing Translational Sciences (NCATS), 2009)
The other results are listed elsewhere or left out. Further columns of the screen follow, without active or inactive calls. The list favours compounds with an active or inconclusive main result. The note in brackets gives the kind of curve behind each potency; many fits are weak.

Assay: qHTS Assay for Modulators of Lamin A Splicing
Conditions: HeLa LMNA splicing GFP/RFP minigene ratio, 48 h
Procedure, shortened: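 S3 HeLa stable clones carrying a lamin A-EGFP splicing minigene plus DsRed2 were seeded at 600 cells/well in Opti-MEM with 2% FBS, pin-dosed and incubated 48 h at 37°C. Acumen cytometry (488 nm) gave the GFP/RFP total-intensity ratio.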

[1] = measured here: GFP splicing reporter channel
[2] = measured here: RFP viability control channel

Compound	AC50 [1]	AC50 [2]
Cc1cc(/C=C2/NC(=O)N(Cc3ccccc3F)C2=O)c(C)n1C(C)C	0.0794 µM [rising, partial curve, poor fit]	12.6 µM [rising, single point]
COc1ccc(N2C(=O)CS(=O)(=O)C23C(=O)N(Cc2c(F)cccc2Cl)c2ccccc23)cc1 (stereo unspecified)	0.794 µM [rising, partial curve]	–
C/C(=N/NC(=O)c1sc(NS(=O)(=O)c2ccc(C)cc2)nc1C)c1sc(N)nc1C	–	0.501 µM [falling, full curve, poor fit]
Cn1c(-c2ccc(F)cc2)cnc1SCC(=O)NNC(=O)Cc1ccccc1	–	6.31 µM [falling, partial curve, poor fit]
Fc1cccc(/C=N/Nc2ccccn2)c1	0.158 µM [falling, full curve, poor fit]	0.158 µM [falling, full curve, poor fit]
COc1ccc(-c2nn(-c3ccccc3)cc2/C=N/NC(N)=S)cc1OC	35.5 µM [falling, single point]	35.5 µM [falling, single point]
Cc1ccc2c(c1)c1ncnc(N3CCc4ccccc4C3)c1n2C	12.6 µM [rising, single point]	22.4 µM [rising, single point]
Cc1ccccc1C(=O)NC(C(=O)Nc1nc2c(s1)CCCC2)C(C)C (stereo unspecified)	–	12.6 µM [rising, single point]
Cc1ccccc1OCCNc1ccc(C(F)(F)F)cc1[N+](=O)[O-]	14.1 µM [falling, single point]	10 µM [falling, partial curve]
Cc1c(C(=O)OCC(=O)N2c3ccccc3CC2C)oc2ccccc12 (stereo unspecified)	14.1 µM [rising, single point]	–
O=C1c2cccc3c([N+](=O)[O-])ccc(c23)C(=O)N1c1nccs1	22.4 µM [falling, single point]	–
CC(=O)Nc1cccc(C(=O)OCC(=O)c2ccccc2Cl)c1	112 µM [falling, partial curve, poor fit]	–
O=c1c2ccccc2nc(SCc2nnc(-c3ccccc3Br)o2)n1Cc1ccco1	–	22.4 µM [rising, partial curve]
CC(C)Oc1ccc(CNC(=O)c2ccccc2NC(=O)c2nsc3ccccc23)cc1	1.78 µM [rising, single point]	2.24 µM [rising, partial curve, poor fit]
CC(=O)Oc1cccc(C)c1	2.82 µM [falling, partial curve, poor fit]	35.5 µM [falling, single point]
O=C(CCn1c(=S)[nH]c2ccccc2c1=O)NCCSCc1ccccc1	14.1 µM [falling, single point]	35.5 µM [falling, single point]
CC(C)Oc1cccc(-c2cc(C(=O)N3CCN(S(C)(=O)=O)CC3)c3ccccc3n2)c1	10 µM [rising, partial curve, poor fit]	11.2 µM [rising, partial curve]
C=CCN(C(=O)Nc1ccc2oc(C)nc2c1)c1ccccc1	35.5 µM [rising, single point]	14.1 µM [rising, partial curve, poor fit]

Sorted by molar mass (rising): 7 of the compounds above.
Compound	AC50 [1]	AC50 [2]
O=C1c2cccc3c([N+](=O)[O-])ccc(c23)C(=O)N1c1nccs1	22.4 µM [falling, single point]	–
Cc1ccc2c(c1)c1ncnc(N3CCc4ccccc4C3)c1n2C	12.6 µM [rising, single point]	22.4 µM [rising, single point]
Cc1c(C(=O)OCC(=O)N2c3ccccc3CC2C)oc2ccccc12 (stereo unspecified)	14.1 µM [rising, single point]	–
Cc1ccccc1C(=O)NC(C(=O)Nc1nc2c(s1)CCCC2)C(C)C (stereo unspecified)	–	12.6 µM [rising, single point]
CC(C)Oc1cccc(-c2cc(C(=O)N3CCN(S(C)(=O)=O)CC3)c3ccccc3n2)c1	10 µM [rising, partial curve, poor fit]	11.2 µM [rising, partial curve]
C/C(=N/NC(=O)c1sc(NS(=O)(=O)c2ccc(C)cc2)nc1C)c1sc(N)nc1C	–	0.501 µM [falling, full curve, poor fit]
O=c1c2ccccc2nc(SCc2nnc(-c3ccccc3Br)o2)n1Cc1ccco1	–	22.4 µM [rising, partial curve]

Further entries:

Compound	AC50 [1]	AC50 [2]
Cc1ccc(/C=C2\C(=O)ON=C2c2ccccc2)o1	–	0.0891 µM [falling, full curve, poor fit]
Cc1ccc(C(=O)c2ccccc2C(=O)OCC(=O)Nc2ccc(SC(F)F)cc2)cc1	–	5.62 µM [rising, partial curve]
COc1ccc(NC(=O)C2CC(=O)N=C(N)S2)cc1 (stereo unspecified)	5.62 µM [rising, single point]	–
Cc1ccccc1C=Nc1ccccc1C(N)=O	–	7.08 µM [rising, partial curve]
CCOC(=O)c1c(NC(=O)c2ccco2)n(C2CCCCC2)c2nc3ccccc3nc12	12.6 µM [rising, partial curve]	11.2 µM [rising, partial curve]
COc1ccc(/C=N/NS(=O)(=O)c2ccccc2)cc1OS(=O)(=O)c1ccc(C)cc1	–	35.5 µM [rising, single point]
O=C(Nc1cccnc1)c1sc2cccc(F)c2c1Cl	7.08 µM [rising, full curve, poor fit]	–
CCCc1nn(C)c(C(=O)Nc2ccc(CC)cc2)c1Cl	–	1 µM [rising, full curve, poor fit]
N=c1c2c(-c3ccccc3)c(-c3ccccc3)oc2ncn1CCN1CCOCC1	11.2 µM [rising, partial curve]	17.8 µM [rising, single point]
Cc1cccc(C)c1NC(=S)Nc1ccc(F)cc1	1.78 µM [falling, partial curve]	2 µM [falling, full curve, poor fit]
CC1CCC2(CC1)NC(=S)N(c1ccccc1)N2 (stereo unspecified)	–	25.1 µM [falling, single point]
Clc1cccc(Nc2ncnc3c2cnn3-c2ccccc2)c1	22.4 µM [rising, single point]	22.4 µM [rising, partial curve, poor fit]
CC(Oc1ccc(Cl)cc1Cl)c1nc(-c2ccc(NC(=O)c3ccco3)cc2)no1 (stereo unspecified)	–	11.2 µM [rising, single point]
Cc1ccc(-n2ncc3c(N4CCCCCC4)ncnc32)cc1C	7.08 µM [falling, full curve]	–
O=C(COc1ccccc1)N1CCN(c2ncnc3c2cnn3-c2ccccc2)CC1	–	31.6 µM [rising, single point]
Cc1cc(NC(=O)c2sccc2C)n(-c2nc3ccccc3[nH]2)n1	2.82 µM [falling, single point]	35.5 µM [falling, single point]
CCc1ccc(-c2cn3c(n2)sc2cc(C(=O)NC4CCCCC4)ccc23)cc1	17.8 µM [rising, partial curve]	12.6 µM [rising, single point]
